This assay concerns the target cynomolgus CD73 on the cell surface (293T/17-cynoCD73 cells) (cynomolgus (Macaca fascicularis)). The assay is described as follows: flow cytometry on 293T/17 cells expressing cynoCD73, APC-labelled goat anti-human antibody, MFI. In general terms: A flow cytometer gives signals particle by particle.

Positions count from the first letter of the chain named. These are yes or no findings as the source states them, for the method shown. A result given as binding can be weak or reduced; the word gives no strength.

B1: JB94H2L1 (antibody, human IgG1, kappa, V domains shown)
VH: QVQLVQSGAEVKKPGASVKVSCKASGYTFTSYWMHWVRQRPGQGLEWMGYINPSSGYTKSNQKFKDRVTLTADTSTSTAYMELSSLRSEDTAVYYCGRWLLSAWFAYWGQGTLVTVSS
VL: DIQMTQSPSSLSASVGDRVTITCKASQDINTYLSWFQQKPGKAPKSLIYRSNILVDGVPSRFSGSGSGQDFTLTISSLQPEDFAIYYCLQYDDFPYTFGQGTKLEIKR
With B1, the binding result is given as “binds”.

B2: JB94H3L3 (antibody, human IgG1, kappa, V domains shown)
VH: B1 VH with V5Q, V20L, M48I, V68A
VL: B1 VL with A43S, F71Y
Turning to B2, the binding result is “binds”.

B3: JB24H2L1 (antibody, human IgG1, kappa, V domains shown)
VH: QVQLVQSGAEVKKPGASVKMSCKASGYTFTDYNMHWVRQSPGKSLEWIGYIKPHNAGTTYNPKFEGRATLTVDTSASTAYMELSSLRSEDTAVYYCVRSDFLYWYFDVWGQGTTVTVSS
VL: DIQMTQSPSSLSASVGDRVTITCTASSSVSSSYLHWYQQKPGKAPKLLIYSTSNLASGVPSRFSGSGSGTDFTLTISSLQPEDFATYYCHQYHRSPLTFGAGTKLEIKR
For the molecule B3, the binding entry is recorded as “binds”.

B4: JB24H3L3 (antibody, human IgG1, kappa, V domains shown)
VH: B3 VH with R38K, P41H, S84R
VL: B3 VL with Q3V, K43S, A44S, L48W, S61G, F72Y
In the case of B4, the binding entry is recorded as “binds”.

B5: JB24H3L2 (antibody, human IgG1, kappa, V domains shown)
VH: B3 VH with R38K, P41H, S84R
VL: B3 VL with K43S, L48W, F72Y
For the molecule B5, the binding entry is listed as “binds”.

B6: JB24Chi (antibody, human IgG1, kappa, V domains shown)
VH: QVQLQQSGLELVKPGASVKMSCKASGYTFTDYNMHWVKQSHGKSLEWIGYIKPHNGGTTYNPKFEGKATLTVNKSSSTAYMELRSLTSEDSAVYYCVRCDFLYWYFDVWGTGTTVTVSS
VL: DIVMTQSPAIMSASLGERVTMTCTASSSVSSSYLHWYQQKPGSSPKLWIYSTSNLASGVPGRFSGSGSGTSYSLTISSMEAEDAATYYCHQYHRSPLTFGAGTKLEMKR
On to B6, for which the binding result was “binds”.

The record behind these values is patent publication US20220064322A1.
